PubChem BioAssay AID1259424, University of Nebraska Medical Center | 2018
The deposit covers about 14,000 reagents; below is a random part of them. 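Higher correlation or smaller distance means closer resemblance to KSR1 loss; control wells, including KSR1 knockdowns, recur on many plates.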 Further read-outs or replicates are left out here. Reagent sequences are not shown. The record does not give: the time to read-out.

- Assay: 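Find knockdowns that reproduce the expression shifts seen after KSR1 loss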 (primary screen)
- System: human HCT116 colon cancer cells
- Reagents: siRNA pool against human genes, 50 nM
- Measurement: 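Six signature mRNAs by branched-DNA multiplex assay, scaled to two housekeeping genes and non-targeting median, log2; matched to mean KSR1 knockdown profile by Pearson correlation and euclidean distance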
- Scale: mean correlation with KSR1 profile: higher = expression change more like KSR1 knockdown

ANAPC2 (anaphase promoting complex subunit 2) [SID363998473]
- mean correlation with KSR1 profile: -0.098

IFT25 (intraflagellar transport 25) [SID363999894]
- mean correlation with KSR1 profile: -0.39

ARHGAP23 (Rho GTPase activating protein 23) [SID364005350]
- mean correlation with KSR1 profile: -0.749

KLC1 (kinesin light chain 1) [SID363996452]
- mean correlation with KSR1 profile: -0.211

ENPP2 (ectonucleotide pyrophosphatase/phosphodiesterase 2) [SID363997034]
- mean correlation with KSR1 profile: 0.278

FBN1 (fibrillin 1) [SID363991474]
- mean correlation with KSR1 profile: 0.0723

INTS13 (integrator complex subunit 13) [SID364000837]
- mean correlation with KSR1 profile: 0.321

DYRK1B [SID363995673]
- mean correlation with KSR1 profile: 0.267

SLC8A2 [SID364005111]
- mean correlation with KSR1 profile: -0.122

PRKDC (protein kinase, DNA-activated, catalytic subunit) [SID363997660]
- mean correlation with KSR1 profile: 0.177

SLC15A2 [SID364001998]
- mean correlation with KSR1 profile: 0.414

GDAP1L1 [SID364002695]
- mean correlation with KSR1 profile: -0.442

PRORP (protein only RNase P catalytic subunit) [SID364005520]
- mean correlation with KSR1 profile: 0.701

WNT10A (Wnt family member 10A) [SID364003320]
- mean correlation with KSR1 profile: -0.216

CCDC91 (coiled-coil domain containing 91) [SID364000972]
- mean correlation with KSR1 profile: -0.375

CEP250 (centrosomal protein 250) [SID363997886]
- mean correlation with KSR1 profile: -0.575

VPS4B (vacuolar protein sorting 4 homolog B) [SID363995820]
- mean correlation with KSR1 profile: 0.179

ZNF767P (zinc finger family member 767, pseudogene) [SID364003154]
- mean correlation with KSR1 profile: -0.329

RAB1A (RAB1A, member RAS oncogene family) [SID363995165]
- mean correlation with KSR1 profile: -0.407

2 entries already listed, sorted by “mean correlation with KSR1 profile”, highest first:
PRORP (protein only RNase P catalytic subunit) [SID364005520]
- mean correlation with KSR1 profile: 0.701

WNT10A (Wnt family member 10A) [SID364003320]
- mean correlation with KSR1 profile: -0.216
